# Test results reported in paper PMC5605996.
# No constants are given. Whether binding was seen depends on the method and setting. In cells and extracts the contact can be indirect. Binding can be weak; no strength is given.
# B1: Asx COOH terminal residues 1200-1501, E(z)/Trx SET domain interaction site 2 (AsxETSI-2), 35S-labelled, in vitro translated (domain or fragment, UniProt Q9V727 1200-1501)
# chain: MQQLPNVLTMKTLPPSGVPTTIAQQRLQPKMPTGKGRKATSNRLPPGAVNLERSYQICQAVIQNSPNRENLKAQLRPPAAILNQHQPTTTTAPAPINPVTLNVSTVAATPMSNITTATGSMAAAVAAAPPQNVLKQEELLVSGAVGAGALPAGLPPNVMGVGRPGVYKVIGPRMSGFPRKKYVQRKPSPTTLIRHVFSPGPGGATATAQQLQMLQQHHQSTTSPVPVQNPQQPAPEQLIHQNGNGQYVLVHRANVGAADNQAPRASSAPPMHQNQFVTVQNPLHSINGIPMGGRGRPASVDT
# modifications: 35S-methionine labelled
# B2: Asx COOH terminal residues 1501-1669, Trx SET domain interaction site (AsxTSI), 35S-labelled, in vitro translated (domain or fragment, UniProt Q9V727 1501-1669)
# chain: TTAGSGNVIAPPISATDALHHHHHEMQQQQQHQQPQPLGNVGAAANIVRRNIAAGPNIAYIDGSNTNSSAVALMEAGNNYIVTTNASPTAAPSPINQQPQSQPTGTQHQHPLLQLHQTGENTPPGNEATATANNCACSLNAMVICQQCGAFCHDDCIGAAKLCVACVIR
# modifications: 35S-methionine labelled
# B3: Asx COOH terminal deletion mutant A(1-1200), 35S-labelled, in vitro translated (domain or fragment, UniProt Q9V727 1-1200)
# chain: MKTITPDTTTTTSSQHQQLLIPQADQHHQPMLQQQSLLAAPPPTMIMEHVNLVDDDEKDPLALEQLEVSPSTKHTHSLRRHLPRIIVKPIPPEKKPMAPSEEAAVSTAPAPPTRLICSRRIQQQQQVKAAAAAAAAAAAAAAAAAAAAQAQATSSYPSAISPGSKAGTSQASTMREVLASIPGFSVKPRRRSNKKLTTAAQIEQTKDGKIDLETPDSILASTNLRALLNKQTFSLLPPLYQYNLIQLLPSVDREASELEQPSSSASGGSPSEAIRLSASCLNNEFFARACLEWRERLSEGEFTPENQLKLKTEAEREKNKLDPWKLKHFEPFWGEKNSRGKDKDKLESDCKNQKLSASIKSEPKPPATSQQKPLQQATCDNETELKFDLSTKCETTSAKTTVAVAVADKSSTFPPTGSQNNVLNEQQRRVLKRPSSSPSQRKQAPTTIATINLDDDLDELPSTSKDSKQPKMDEIVPNASGNVVAAPMVDVVDHSAVEMKIKDEQQHQRQHQPLINSTCDKIEPSECSKEMIVAMKQVDSKEDVDSIASAAAMPAIAAVTPHTPKPEALAPNPDVANQFVSYLQNVELAAETKAPLDNSNEADITTGTNSHDFVFSDTIDHAYFQEHQSTINHNFFTSSSSSNTATTAANKLEEHSDKPEDSPLPIASSISGSTPASSITSTSCTSSSSSSASMSSSCSSSNSGSTTTAPTTSSSAGAPTAPLTLAAAAETTLANVQAMLSTVAKLQQQQQELPVELNSNEMYQHVQHDWNFGDIKLSSSQSSGDQQRNLSHEAIDLMDVVQDADVIDDIMHNDVCHDVLGDEDEGDQEEDEDDEVVECMTEEQQLIDEDSEAVREIVDKLQQHQQQQNQQQHHQQLHIQDVVQLAQHSFMPQAHSEFGNDIGQEMLCDAVPMSAAEMEVSSTVITNSSNSNDSSNNISLCSSTNSLTINQMPHQASQQPQQNAQSNAQQQRQILVDSNGQIIGNFLLQQQRQQQQQQLLQQFTLQAAAAQQQQQQQQQHQQQQQQQQQATSSNSLGKTLPVALRNGTQQFLSPNLIAQQHQQQQQQQLEQHQQQATAQQKHQQIQQFALQQAQLHQRQLLAQAANNNLLQQQQQQQQNVALPTTQAKFIAKPLNIISMTRPANASPTTAATTANTASIPSAYANVVAVTGAQQQQSPPVPAPQQQTVQQQQLANHNSNM
# modifications: 35S-methionine labelled
# B4: Asx deletion fragment A(1-200), 35S-labelled, in vitro translated (domain or fragment, UniProt Q9V727 1-200)
# chain: MKTITPDTTTTTSSQHQQLLIPQADQHHQPMLQQQSLLAAPPPTMIMEHVNLVDDDEKDPLALEQLEVSPSTKHTHSLRRHLPRIIVKPIPPEKKPMAPSEEAAVSTAPAPPTRLICSRRIQQQQQVKAAAAAAAAAAAAAAAAAAAAQAQATSSYPSAISPGSKAGTSQASTMREVLASIPGFSVKPRRRSNKKLTTAA
# modifications: 35S-methionine labelled
# B5: Asx deletion fragment A(200-354), 35S-labelled, in vitro translated (domain or fragment, UniProt Q9V727 200-354)
# chain: AQIEQTKDGKIDLETPDSILASTNLRALLNKQTFSLLPPLYQYNLIQLLPSVDREASELEQPSSSASGGSPSEAIRLSASCLNNEFFARACLEWRERLSEGEFTPENQLKLKTEAEREKNKLDPWKLKHFEPFWGEKNSRGKDKDKLESDCKNQK
# modifications: 35S-methionine labelled
# B6: Asx deletion fragment A(1381-1501), 35S-labelled, in vitro translated (domain or fragment, UniProt Q9V727 1381-1501)
# chain: YVQRKPSPTTLIRHVFSPGPGGATATAQQLQMLQQHHQSTTSPVPVQNPQQPAPEQLIHQNGNGQYVLVHRANVGAADNQAPRASSAPPMHQNQFVTVQNPLHSINGIPMGGRGRPASVDT
# modifications: 35S-methionine labelled
# Molecular target: GST fusion of the SET domain of Trithorax, GST-TrxSET (Drosophila)
# Experiment: pull-down; 1 μg GST-E(z)SET or GST-TrxSET immobilised on GSH-agarose, mixed 2 h at 4 °C with pre-cleared reticulocyte lysate holding 35S-Asx or its deletion fragments; washes with 0.6 M NaCl, pH 7.9; SDS-PAGE and autoradiography, densitometry relative to GST; only the target purified
row,Binder,binding
1,B1,binds
2,B2,binds weakly
3,B3,no binding
4,B4,no binding
5,B5,no binding
6,B6,no binding
